US10912841B2 (PIERRE FABRE MEDICAMENT, priority 2014, dated 2021)

Assay: general procedure: solution-phase peptide synthesis; HATU/DIEA
Details: for conjugation yield: conjugation step
[1] = late stage modification step, 210 nm

Substance: 4-((S)-2-((S)-2-(6-(2,5-dioxo-2,5-dihydro-1H-pyrrol-1-yl)hexanamido)-3-methylbutanamido)-5-ureidopentanamido)benzyl(4-((3R,4S,7S,10S)-4-((S)-sec-butyl)-7,10-diisopropyl-3-(2-((S)-2-((1R,2R)-1-methoxy-2-methyl-3-oxo-3-(((S)-2-phenyl-1-(thiazol-2-yl)ethyl)amino)propyl)pyrrolidin-1-yl)-2-oxoethyl)-5,11-dimethyl-6,9-dioxo-2-oxa-5,8,11-triazatridecan-13-yl)phenyl)(methyl)carbamate 2,2,2-trifluoroacetate
- conjugation yield: 54%

Substance: ((2R,3R)-3-((S)-1-((3R,4S,5S)-4-((S)-2-((S)-2-((4-(6-(2,5-dioxo-2,5-dihydro-1H-pyrrol-1-yl)-N-methylhexanamido)phenethyl)(methyl)amino)-3-methylbutanamido)-N,3-dimethylbutanamido)-3-methoxy-5-methylheptanoyl)pyrrolidin-2-yl)-3-methoxy-2-methylpropanoyl)-L-phenylalanine 2,2,2-trifluoroacetate
- conjugation yield: 62%

Substance: ((2R,3R)-3-((S)-1-((3R,4S,5S)-4-((S)-2-((S)-2-((4-((S)-2-((S)-2-(6-(2,5-dioxo-2,5-dihydro-1H-pyrrol-1-yl)hexanamido)-3-methylbutanamido)-5-ureidopentanamido)phenethyl)(methyl)amino)-3-methylbutanamido)-N,3-dimethylbutanamido)-3-methoxy-5-methylheptanoyl)pyrrolidin-2-yl)-3-methoxy-2-methylpropanoyl)-L-phenylalanine 2,2,2-trifluoroacetate
- conjugation yield: 36%

Substance: ((2R,3R)-3-((S)-1-((3R,4S,5S)-4-((S)-2-((S)-2-((4-aminophenethyl)(methyl)amino)-3-methylbutanamido)-N,3-dimethylbutanamido)-3-methoxy-5-methylheptanoyl)pyrrolidin-2-yl)-3-methoxy-2-methylpropanoyl)-L-phenylalanine 2,2,2-trifluoroacetate
- step yield (late stage modification step): 66%

Substance: (S)-2-((2R,3R)-3-((S)-1-((3R,4S,5S)-4-((S)-2-((S)-2-((2-aminoethyl)(methyl)amino)-3-methylbutanamido)-N,3-dimethylbutanamido)-3-methoxy-5-methylheptanoyl)pyrrolidin-2-yl)-3-methoxy-2-methylpropanamido)-3-phenylpropanoic acid
- step yield (late stage modification step): 8%
- final HPLC purity [1]: 93.6%

Substance: (S)-2-((2R,3R)-3-((S)-1-((3R,4S,5S)-4-((S)-2-((S)-2-((3-aminobenzyl) (methyl)amino)-3-methylbutanamido)-N,3-dimethylbutanamido)-3-methoxy-5-methylheptanoyl)pyrrolidin-2-yl)-3-methoxy-2-methylpropanamido)-3-phenylpropanoic acid
- step yield (late stage modification step): 20%

Substance: (S)-2-((2R,3R)-3-((S)-1-((3R,4S,5S)-4-((S)—N,3-dimethyl-2-((S)-3-methyl-2-(methyl(2-(piperazin-1-yl)ethyl)amino)butanamido)butanamido)-3-methoxy-5-methylheptanoyl)pyrrolidin-2-yl)-3-methoxy-2-methylpropanamido)-3-phenylpropanoic acid, tris trifluoroacetic acid
- step yield (late stage modification step): 33%
- final purity (method not given) [1]: 100%

Substance: (S)-2-((2R,3R)-3-((S)-1-((7S,10S,13S,14R)-1-amino-13-((S)-sec-butyl)-7,10-diisopropyl-14-methoxy-6,12-dimethyl-8,11-dioxo-3-oxa-6,9,12-triazahexadecan-16-oyl)pyrrolidin-2-yl)-3-methoxy-2-methylpropanamido)-3-phenylpropanoic acid
- step yield (late stage modification step): 19%
- final HPLC purity [1]: 96.7%

Substance: (S)-2-((2R,3R)-3-((S)-1-((8S,11S,14S,15R)-14-((S)-sec-butyl)-8,11-diisopropyl-15-methoxy-7,13-dimethyl-9,12-dioxo-2,7,10,13-tetraazaheptadecan-17-oyl)pyrrolidin-2-yl)-3-methoxy-2-methylpropanamido)-3-phenylpropanoic acid
- step yield (late stage modification step): 31%
- final HPLC purity [1]: 100%

Substance: (S)-2-((S)-2-((2-(2-aminoethoxy)ethyl)(methyl)amino)-3-methylbutanamido)-N-((3R,4S,5S)-3-methoxy-1-((S)-2-((1R,2R)-1-methoxy-2-methyl-3-oxo-3-(((S)-2-phenyl-1-(thiazol-2-yl)ethyl)amino)propyl)pyrrolidin-1-yl)-5-methyl-1-oxoheptan-4-yl)-N,3-dimethylbutanamide
- step yield (late stage modification step): 23%
- final HPLC purity [1]: 89.7%

Substance: (S)-2-((S)-2-((2-(2-hydroxyethoxy)ethyl)(methyl)amino)-3-methylbutanamido)-N-((3R,4S,5S)-3-methoxy-1-((S)-2-((1R,2R)-1-methoxy-2-methyl-3-oxo-3-(((S)-2-phenyl-1-(thiazol-2-yl)ethyl)amino)propyl)pyrrolidin-1-yl)-5-methyl-1-oxoheptan-4-yl)-N,3-dimethylbutanamide, trifluoroacetic acid
- final purity (method not given) (late stage modification step, LC/MS/UV, 254 nm, TFA salt): 94.5%

Substance: (S)-2-((S)-2-((3-aminopropyl)(methyl)amino)-3-methylbutanamido)-N-((3R,4S,5S)-3-methoxy-1-((S)-2-((1R,2R)-1-methoxy-2-methyl-3-oxo-3-(((S)-2-phenyl-1-(thiazol-2-yl)ethyl)amino)propyl)pyrrolidin-1-yl)-5-methyl-1-oxoheptan-4-yl)-N,3-dimethylbutanamide, bis trifluoroacetic acid
- step yield (late stage modification step): 25%
- final HPLC purity (late stage modification step, 254 nm): 93.7%

Substance: (S)-2-((S)-2-((4-aminobenzyl) (methyl)amino)-3- methylbutanamido)-N- ((3R,4S,5S)-1-((S)-2-((1R,2R)- 3-(((1S,2R)-1-hydroxy-1- phenylpropan-2-yl)amino)-1-methoxy-2-methyl-3-oxopropyl)pyrrolidin-1-yl)-3-methoxy-5-methyl-1-oxoheptan-4-yl)-N,3-dimethylbutanamide
- final purity (method not given) (LC/MS/UV, 254 nm): 99.1%

Substance: (S)-2-((S)-2-((4-aminobenzyl)(methyl)amino)-3-methylbutanamido)-N-((3R,4S,5S)-3-methoxy-1-((S)-2-((1R,2R)-1-methoxy-2-methyl-3-oxo-3-(((S)-2-phenyl-1-(thiazol-2-yl)ethyl)amino)propyl)pyrrolidin-1-yl)-5-methyl-1-oxoheptan-4-yl)-N,3-dimethylbutanamide, trifluoroacetic acid
- final purity (method not given) (LC/MS/UV, 254 nm, TFA salt): 96.7%

Substance: (S)-2-((S)-2-((4-aminobutyl)(methyl)amino)-3-methylbutanamido)-N-((3R,4S,5S)-3-methoxy-1-((S)-2-((1R,2R)-1-methoxy-2-methyl-3-oxo-3-(((S)-2-phenyl-1-(thiazol-2-yl)ethyl)amino)propyl)pyrrolidin-1-yl)-5-methyl-1-oxoheptan-4-yl)-N,3-dimethylbutanamide, bis trifluoroacetic acid
- final purity (method not given) (LC/MS/UV, 254 nm, TFA salt): 94.9%

Substance: (S)-2-((S)-2-((4-hydroxybenzyl)(methyl)amino)-3-methylbutanamido)-N-((3R,4S,5S)-3-methoxy-1-((S)-2-((1R,2R)-1-methoxy-2-methyl-3-oxo-3-(((S)-2-phenyl-1-(thiazol-2-yl)ethyl)amino)propyl)pyrrolidin-1-yl)-5-methyl-1-oxoheptan-4-yl)-N,3-dimethylbutanamide, trifluoroacetic acid
- final purity (method not given) (LC/MS/UV, 254 nm, TFA salt): 93.2%

Substance: (S)-2-((S)-2-(((2-aminopyridin-4-yl)methyl)(methyl)amino)-3-methylbutanamido)-N-((3R,4S,5S)-1-((S)-2-((1R,2R)-3-(((1S,2R)-1-hydroxy-1-phenylpropan-2-yl)amino)-1-methoxy-2-methyl-3-oxopropyl)pyrrolidin-1-yl)-3-methoxy-5-methyl-1-oxoheptan-4-y)-N,3-dimethylbutanamide, trifluoroacetic acid
- step yield (late stage modification step): 6%
- final HPLC purity [1]: 99.2%

Substance: (S)-N-((3R,4S,5S)-1-((S)-2- ((1R,2R)-3-(((1S,2R)-1- hydroxy-1-phenylpropan-2- yl)amino)-1-methoxy-2-methyl-3-oxopropyl)pyrrolidin-1-yl)-3-methoxy-5-methyl-1-oxoheptan-4-yl)-2-((S)-2-((2-(2-hydroxyethoxy)ethyl)(methyl)amino)-3-methylbutanamido)-N,3-dimethylbutanamide
- final purity (method not given) (LC/MS/UV, 254 nm): 95.5%

Substance: (S)-N-((3R,4S,5S)-1-((S)-2- ((1R,2R)-3-(((1S,2R)-1- hydroxy-1-phenylpropan-2- yl)amino)-1-methoxy-2-methyl-3-oxopropyl)pyrrolidin-1-yl)-3-methoxy-5-methyl-1-oxoheptan-4-yl)-N,3-dimethyl-2-((S)-3-methyl-2-(methyl(2-(methylamino)ethyl)amino)butanamido)butanamide
- final purity (method not given) (LC/MS/UV, 254 nm, bis TFA salt): 97.5%

Substance: (S)-N-((3R,4S,5S)-1-((S)-2- ((1R,2R)-3-(((1S,2R)-1- hydroxy-1-phenylpropan-2- yl)amino)-1-methoxy-2-methyl- 3-oxopropyl)pyrrolidin-1-yl)-3-methoxy-5-methyl-1-oxoheptan-4-yl)-2-((S)-2-((4-hydroxybenzyl)(methyl)amino)-3-methylbutanamido)-N,3-dimethylbutanamide
- final purity (method not given) (LC/MS/UV, 254 nm): 98.5%

Substance: (S)-N-((3R,4S,5S)-3-methoxy-1-((S)-2-((1R,2R)-1-methoxy-2-methyl-3-oxo-3-(((S)-2-phenyl-1-(thiazol-2-yl)ethyl)amino)propyl)pyrrolidin-1-yl)-5-methyl-1-oxoheptan-4-yl)-N,3-dimethyl-2-((S)-3-methyl-2-(methyl(2-(methylamino)ethyl)amino)butanamido)butanamide, bis trifluoroacetic acid
- final purity (method not given) (LC/MS/UV, 254 nm, TFA salt): 99.6%

Substance: (S)—N-((3R,4S,5S)-3-methoxy-1-((S)-2-((1R,2R)-1-methoxy-2-methyl-3-oxo-3-(((S)-2-phenyl-1-(thiazol-2-yl)ethyl)amino)propyl)pyrrolidin-1-yl)-5-methyl-1-oxoheptan-4-yl)-N,3-dimethyl-2-((R)-3-methyl-2-(methyl(2-(2-(methylamino) ethoxy)ethyl)amino)butanamido)butanamide
- step yield (late stage modification step): 64%
- final HPLC purity [1]: 100%
